In series [1] the target is T1, ARID4B TD151 (Homo sapiens) (UniProt Q4LE39).
T1 sequence (looked up): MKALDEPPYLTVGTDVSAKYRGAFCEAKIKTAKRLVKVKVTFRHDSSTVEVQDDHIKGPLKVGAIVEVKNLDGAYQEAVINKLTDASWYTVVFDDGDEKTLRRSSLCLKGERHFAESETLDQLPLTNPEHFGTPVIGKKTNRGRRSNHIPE
The experiment in a line: ITC. The conditions noted are these: 50 mM Tris-HCl pH 7.6, 50 mM NaCl (buffer A); ITC 25 C; recombinant protein; residues 1-151.

Series [2] has as its target T2, ARID4B TD121 (Homo sapiens) (UniProt Q4LE39).
T2 sequence (looked up): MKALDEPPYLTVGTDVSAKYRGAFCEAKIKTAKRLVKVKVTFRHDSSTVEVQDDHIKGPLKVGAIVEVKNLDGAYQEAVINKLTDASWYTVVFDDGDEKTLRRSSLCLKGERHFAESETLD
The experiment in a line: EMSA. The note with it: 50 mM Tris-HCl pH 7.6, 50 mM NaCl (buffer A); EMSA 4 C, 12 uM DNA, 8% native gel in TBE; recombinant protein; residues 1-121. (In general: A gel shift assay detects complexes by their altered migration in electrophoresis.)

For some of these results: The comparison behind a weaker result is the experiment's own reference, which may not be listed here. Where a protein sequence is shown, tags need not be part of it. For some of these results: The exact form of at least one protein or probe is not confirmed.

A word on the Kd: it is the constant that tells how readily two partners part at equilibrium.

“CGCAATTATATATTACGG (double strand) [dsAT18]”: the dissociation constant Kd in series [1] was 8 µM.
In the case of “CGCACCGATCCGTGACGG (double strand) [dsGC18]”, in series [1], the Kd was found to be 16 µM.
As to “CGCTTTAAAAAATTTCGG (double strand) [dsA-tract]”, in series [1], the Kd was 8 µM.
For “CTCAGGTCAAAGGTCACG / TCGTGACCTTTGACCTGA [dsDNA1]”, in series [2], the binding result is given as “binds more weakly”.

Source of the values: article PMC8038949, “Structural basis for the DNA-binding activity of human ARID4B Tudor domain”.
